In the supplement of paper PMC5949888:
± gives the standard deviation of the averaged measurements. Most values lie at the floor of the assay. Slopes are relative: functional sequences can read slightly below zero.

test system: Saccharomyces cerevisiae PS128 hsf1 delta, HSF1(1-493) fusion; test: growth estimate (transactivation domain function in HSF1 fusion, heat-shock survival) (a.u. (slope of normalised read count over time)); higher = stronger growth at 37°C, i.e. more transactivation activity; settings: library: random library
Method: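 Random 60-nt DNA library encoding peptides of up to 20 aa, fused to the C-terminus of yeast HSF1 residues 1-493 (C-terminal TAD deleted) and expressed from the native HSF1 promoter on a CEN plasmid in hsf1-deleted S. cerevisiae PS128. Cells were selected at 37°C on -trp 5-FOA plates for 0, 2, 4, 6 and 8 days and amplicons were sequenced. Growth estimate is the slope of a robust linear fit of total-sum-normalised read counts (normalised to the first time point) over time, using at least 2 replicates. Sequences are classed functional (TAD activity) above a threshold of -0.13, set from stop-codon control sequences.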

| Substance | growth estimate |
| --- | --- |
| ARIFVSLPYEQKINPHLVSA | < -0.25 |
| AWAGQGVKMWSMARF | < -0.25 |
| RVNGLSAP | < -0.25 |
| DRGTQHWPDSGR | 0.044 |
| HSYAMFRRGSGGETMGVLVP | < -0.25 |
| LHEHSAQLSFVIKGPTGLLA | < -0.25 |
| PTGGARRICNGRKEFRSVAF | < -0.25 |
| LLSSHLLPGRIMVQAGE | -0.235 |
| TFRW | < -0.25 |
| SEGILN | < -0.25 |
| GRKRSLAAARCVVGFGGWS | < -0.25 |
| AEFGLNEGTADQ | < -0.25 |
| GQRGKPQRNIAGL | < -0.253 |
| AHEKSAENAL | < -0.25 |
| TNGLLWYSRTCLRSHPSSAV | < -0.25 |
| SRRRAHPGMIG | < -0.25 |
| LYRIRDTA | < -0.25 |
| GCGTPV | < -0.25 |
| PIRQWGRSRKWPRPL | < -0.25 |
| RTRVKSYAVILTL | < -0.25 |
| CSDFYNSL | < -0.25 |
| GIMPRQCRRATKAVQADHAS | < -0.25 |
| RCASRPDALVDSNALVGRRG | < -0.25 |
| GRLPKQV | < -0.25 |

| Substance | growth estimate |
| --- | --- |
| PGEKWTRT | < -0.25 |
| TIYRHSNLPSDEGRTCVLQG | < -0.25 |
| YGLYGFACLFAAA | < -0.25 |
| EIQS | < -0.25 |
| HVSGT | < -0.25 |
| GVCIYPRQLRVNFLTVRPGG | < -0.25 |
| AANGMMF | < -0.25 |
| RLTRSRIRVGCVTVK | -0.231 |
| PVGEWGTERTAREMDFDHDA | < -0.25 |
| GTSSVLLVLYLL | < -0.25 |
| WRL | < -0.25 |
| STV | < -0.25 |
| VASDGWTISRDR | -0.246 |
| VVGPGRWGYPFPGW | < -0.25 |
| ARGIASIDVIYEANRTSAEP | < -0.25 |
| CSSESVVCQEPSATDPIRHP | < -0.25 |
| LVCGSQYSQYGFPMFCLNTA | < -0.25 |
| YGAL | < -0.25 |
| QVGYMAWGRSYVHRRRFLTR | -0.246 |
| TRI | -0.245 ± 0.0065 |
| VDKRT | < -0.25 |
| GLSEIVYRASRRTSTYLAPT | < -0.25 |
| SYTTQGTAAQRQAFDADDVG | < -0.25 |
| SLGTGVPSEIQRHMGRVLGS | < -0.25 |

| Substance | growth estimate |
| --- | --- |
| LETPALFLDGFANVSAWKYK | < -0.25 |
| RAS | < -0.25 |
| HRLDLIRKMKTRLGSNVIHK | < -0.25 |
| AGDG | < -0.25 |
| EWWIMKEYRRRNGAVLLSTP | < -0.25 |
| HNSDCRSVASRTKSYSDLGN | < -0.25 |
| SCPLVGESCCARGAGNRFRR | < -0.25 |
| DLSVVLVGAAA | < -0.25 |
| NSIRRLVGIMRSKYLRRHVA | < -0.25 |
| LTVRLKRVDTRV | < -0.25 |
| SGLKDMLLEVVHV | < -0.25 |
| TVPHDFIFHYLSSEG | < -0.25 |
| ITGDE | < -0.25 |
| GECSLPNGNNGDGNSTRPRD | < -0.25 |
| YYLGIQFQAVSRTVCNWRRQ | < -0.25 |
| STLCAHAGGNSTRGAGAISC | < -0.25 |
| RHCIAFRAHQFRALR | < -0.25 |
| GLHWSRRGFAGQGDRLSDTR | < -0.25 |
| RPKGWGQWSFLGEYVTHMRR | < -0.25 |
| GMQLRVCGGTSVSA | -0.239 |
| RGGLWRKNARR | < -0.25 |
| MDALVELGFGHVTVRQVRLQ | < -0.25 |
| TVLWTVGELARVRIFLSGYF | -0.217 |
| PSRLGSGRQVQSISRDNSSA | -0.243 |

| Substance | growth estimate |
| --- | --- |
| VQLLIGHT | < -0.25 |
| FDQCDRVRRFLPRQYRLQGN | < -0.25 |
| QLQRVRWIPSTARPRCSGLH | < -0.25 |
| LPQQIMWLQPALLHSLNLLS | < -0.25 |
| GILPFCNRIVALAQAKGRWV | < -0.25 |
| LFFV | < -0.25 |
| LSCSLFQSAPDLQVFYRS | 0.0112 |
| WVGSLPSPSLIQWVLSSTI | < -0.25 |
| LQATLY | < -0.25 |
| GCSSLVWRGLP | < -0.25 |
| TDHTFNRI | < -0.25 |
| QRSLRRCKIYLWYRAERHVA | -0.237 |
| AVEYASQRSIVRPLGHSTVT | < -0.25 |
| LTSRRGLDPMGTGSCD | < -0.25 |
| SQCPRGLLSALGRVTSL | < -0.25 |
| QPMFAKAEYTELWGQQRPGA | < -0.25 |
| WSFSSPDPGCVRPPRSTRRA | < -0.25 |
| LVKPLAHCKRIWPTHSA | < -0.25 |
| MFAQNSAFHVLSFVSGSGIS | < -0.25 |
| SPLSSRCPPVAVLGVDPSTL | < -0.25 |
| KSSAWGKPSPLRKRVRTRRR | < -0.25 |
| TQLILTKDLARVS | < -0.25 |
| SDADSV | < -0.25 |
| NKVLVKIARFSSHV | < -0.25 |

| Substance | growth estimate |
| --- | --- |
| SLQFRCQLWLGSSHDTQG | < -0.25 |
| TFSGRSLWGMDDLSTGVTPR | < -0.25 |
| RQTG | < -0.25 |
| SGHWSCRVTDDVRRLGAPSN | < -0.25 |
| ALPDVKRRLLTLRVRCGPLS | < -0.25 |
| DPF | < -0.25 |
| CGD | < -0.25 |
| LGLLIAQPLTMF | < -0.25 |
| FIDRRKAACVAQRWERWCAV | -0.246 |
| PDRLGMCKDHWRFDPNVSGY | < -0.25 |
| FTRCIILVTHPNMREGGRLE | < -0.25 |
| KPKSTVSDANRHLIKFIHVP | < -0.25 |
| WFLCWRLGYKSFLISGEGPG | < -0.25 |
| SDC | < -0.25 |
| RETGAIERWGLIGGGE | < -0.25 |
| CQMCACPDIHCPN | < -0.25 |
| SGRPGVAPRVGCTTKSRLWH | < -0.25 |
| YTGRT | < -0.25 |
| VSRKLNHDALTSRAPSKGSM | < -0.25 |
| MSPAQFIARMIGLPCYPNRA | < -0.25 |
| NGASANMFWDTWVYSKPLSP | 0.0801 |
| AWSSVGKVY | < -0.25 |
| AYKEFLTWHLLVPRPPIY | < -0.25 |
| DFSRLPWAHGRNGGHTYTPQ | < -0.25 |

| Substance | growth estimate |
| --- | --- |
| RTVAHWAYGMGSSVLGWQER | < -0.25 |
| LLSMVVYGKCGRAFGAKVTQ | < -0.25 |
| HKHAK | < -0.25 |
| HLSNRRRFMAIWLGLLDRGN | < -0.25 |
| ILFSRSPGPTSL | < -0.25 |
| RLRFRPVKCPMDRRKESSPT | < -0.25 |
| SDEVSSLFRRDNREGAICTK | < -0.25 |
| RIGHLVTPLFASWNFTRDSS | < -0.25 |
| LFLASDQP | < -0.25 |
| TDLYKGGGMLSDFGKPIRGH | < -0.25 |
| IRPTGFTHR | < -0.25 |
| SRSVERGLDKERVE | < -0.25 |
| MIHYSA | < -0.25 |
| EVKVGVRMRS | < -0.25 |
| INLRVSCVMIGCRSDSP | < -0.25 |
| IVASV | < -0.25 |
| LGIKRVTFGVSSMRSVNHCS | < -0.25 |
| LRRSLSGEGRLLRIGG | < -0.25 |
| RIV | < -0.25 |
| YDILQPRVLCVHGRSPSCFT | < -0.25 |
| RKQKRNSLPSPNRLFVVLKI | < -0.25 |
| VKRCCDVSFPCRTHKPLIGR | < -0.25 |
| IGP | < -0.25 |
| LDRDRDGRKGPMCYKPTKPS | < -0.25 |

| Substance | growth estimate |
| --- | --- |
| PPTL | < -0.25 |
| AESCYVTLGSLVPSGAPVSK | < -0.25 |
| QNIKLKNSPGSY | < -0.25 |
| SSYSLSSFSGYSSVVSL | < -0.25 |
| GNNLVCMERKTFALDQAESH | < -0.25 |
| QGCMVVTAKRWRYETADP | < -0.25 |
| TLLTPATGRECTSDLNIFVD | < -0.25 |
| RSGVNSRCCFAIELLVAVST | < -0.25 |
| SGDIAT | < -0.25 |
| ADIGCKVVFLMAASEEHVFP | < -0.25 |
| LWKACGGASGVNYEMYRSSG | < -0.25 |
| TSAGIVLRCIDPDVPISVCH | < -0.25 |
| LSQ | < -0.25 |
| ELATGGSKGRTCQVQHWWVA | < -0.25 |
| NIEGTTWAVVCSAVRSRSEK | < -0.25 |
| GELLIYAMTRCPGSIAS | < -0.25 |
| VTRPDEWREIKGAHGGGTVQ | < -0.25 |
| AGGKGRWSVVHQPYTLLEGG | < -0.25 |
| VRQLV | < -0.25 |
| QDPPAAWCWAILWSTFATYV | < -0.25 |
| YTNWQCIYDAQASTAQCLGR | < -0.25 |
| GNTLGKWAAVMKARARTC | < -0.25 |
| LRDVCGVNFNISAIDLATPV | < -0.25 |
| STPYSR | < -0.25 |

Some of the entries so far, comma-delimited.
Substance,growth estimate
TDLYKGGGMLSDFGKPIRGH,< -0.25
IRPTGFTHR,< -0.25
SRSVERGLDKERVE,< -0.25
MIHYSA,< -0.25
EVKVGVRMRS,< -0.25
INLRVSCVMIGCRSDSP,< -0.25
IVASV,< -0.25
LGIKRVTFGVSSMRSVNHCS,< -0.25
LRRSLSGEGRLLRIGG,< -0.25
RIV,< -0.25
YDILQPRVLCVHGRSPSCFT,< -0.25
RKQKRNSLPSPNRLFVVLKI,< -0.25
VKRCCDVSFPCRTHKPLIGR,< -0.25
IGP,< -0.25
LDRDRDGRKGPMCYKPTKPS,< -0.25
PPTL,< -0.25
AESCYVTLGSLVPSGAPVSK,< -0.25
QNIKLKNSPGSY,< -0.25
SSYSLSSFSGYSSVVSL,< -0.25
GNNLVCMERKTFALDQAESH,< -0.25
QGCMVVTAKRWRYETADP,< -0.25
TLLTPATGRECTSDLNIFVD,< -0.25
RSGVNSRCCFAIELLVAVST,< -0.25
SGDIAT,< -0.25
ADIGCKVVFLMAASEEHVFP,< -0.25
LWKACGGASGVNYEMYRSSG,< -0.25
TSAGIVLRCIDPDVPISVCH,< -0.25
LSQ,< -0.25
ELATGGSKGRTCQVQHWWVA,< -0.25
NIEGTTWAVVCSAVRSRSEK,< -0.25
GELLIYAMTRCPGSIAS,< -0.25
VTRPDEWREIKGAHGGGTVQ,< -0.25
AGGKGRWSVVHQPYTLLEGG,< -0.25
VRQLV,< -0.25
QDPPAAWCWAILWSTFATYV,< -0.25
YTNWQCIYDAQASTAQCLGR,< -0.25
GNTLGKWAAVMKARARTC,< -0.25

Going on with the list.

| Substance | growth estimate |
| --- | --- |
| VGMIPGQDDRRI | < -0.25 |
| VGDSSKYLTNYKGLGLP | < -0.25 |
| IVLPAHGRLKVTCS | < -0.25 |
| SGLVDLARQC | < -0.25 |
| ARKDGEGGARRYGPRT | < -0.25 |
| LPMRCAHLSERLIPTYAEAY | < -0.253 |
| AFPVIVPPASIGALCLAGTA | < -0.25 |
| GLAVWA | < -0.25 |
| YECEQPSSTLVPRASIHK | < -0.25 |
| YPISR | < -0.25 |
| VDCLCPKCRFE | < -0.25 |
| RSWI | -0.243 |
| DLSSLWGLITCRTVSVENRV | < -0.25 |
| REARGGSIYMRGSTRLLAGG | < -0.25 |
| GGSSWCGVYESACRTLQQHP | < -0.25 |
| VSIQSILRFIRCYSGGSNAI | < -0.25 |
| LCREC | < -0.25 |
| FDGHVLKCRDVGLVQFANLT | < -0.25 |
| RRSEDVKLMLSGECVSKIPI | < -0.25 |
| VFL | < -0.25 |
| VPA | < -0.25 |
| RYRAGSMWPPIITLGAGTRL | < -0.25 |

A different layout for some results above.
YPISR
  growth estimate = < -0.25
VDCLCPKCRFE
  growth estimate = < -0.25
RSWI
  growth estimate = -0.243
DLSSLWGLITCRTVSVENRV
  growth estimate = < -0.25
